For at least one entry, the source does not settle the construct or the ends of the probe. Negatives hold for the conditions tested.
Tested on: pfPcc1 (Pyrococcus furiosus)
Test: fluorescence polarization
Details: 20 mM HEPES pH 7.5, 100 mM NaCl, 2 mM DTT; filter binding 50 nM 32P-tRNA, 1 h, room temperature; FP 50 nM 647-CCA; recombinant protein; protein details: GST removed by TEV; label: 5' Alexa-647

## CCGCCA [647-CCA]
  binding result: no binding

From publication PMC7718258
